{
  "source": "patent US5932541A",
  "about": "“Method of adjusting the circadian rhythm of a mammal” (Gruenenthal GmbH, priority 1998, dated 1999)",
  "tested_on": "hamsters",
  "assay": "Visual observation of overt behavior for two hours post-injection",
  "type": "in vivo, hamster (Mesocricetus auratus)",
  "protocol": "Animals were maintained initially in a 14:10 hour light:dark cycle for 7-10 days, then transferred to constant dim red lighting (RR) conditions for the remainder of the experiment (40-60 days). After free-running for 7 days in dim red lighting, animals either received Montirelin or vehicle intraperitoneally. The daily onset of wheel-running activity was defined as circadian time 12 (CT 12), and this time was used as a reference point in determining appropriate circadian injection times. The test animals were divided into eight groups of three animals each, and intraperitoneal injections of the active compound at dosage levels of 10 or 20 mg/kg or of the vehicle alone were administered to respective test groups at circadian time 3 (CT 3) or circadian time 16 (CT 16). The order of injections and time points was randomized. An additional 4 animals maintained in similar lighting conditions were visually observed for two hours post-injection of Montirelin (10 or 20 mg/kg) to determine any overt behavioral effects exerted by this compound. A total of 9 injections were made for each of the eight treatment groups.",
  "data": [
    {"molecule": "CC1SCC(C(=O)N[C@@H](Cc2c[nH]cn2)C(=O)N2CCC[C@H]2C(N)=O)NC1=O", "note": "(stereo partly drawn) [Montirelin, 6-methyl-5-oxo-3-thiomorpholinylcarbonyl-L-histidyl-L-prolinamide]", "values": [
      {"measurement": "share of observation period apparently asleep", "setting": "10 mg/kg i.p. at CT 3 (drug and vehicle animals alike)", "result": 90, "unit": "%"},
      {"measurement": "wheel running activity, share of study period", "setting": "10 mg/kg i.p. at CT 16, both drug and vehicle groups", "result": "approximately 55%"},
      {"measurement": "persistence of induced behaviors at end of two hour observation period", "setting": "20 mg/kg i.p.", "result": "continued to show Montirelin-induced behaviors"},
      {"measurement": "time behavioral effects first noted post-injection", "setting": "20 mg/kg i.p.", "result": 25, "unit": "min"},
      {"measurement": "time of maximal behavioral effects after drug administration", "setting": "20 mg/kg i.p.", "result": 80, "unit": "min"},
      {"measurement": "time on running wheel, share of observation period", "setting": "20 mg/kg i.p., either circadian time, vehicle 0% (CT 3) and 52% (CT 16)", "result": "approx. 5%"}
    ]}
  ]
}
